# Laboratory results: publication PMC9196629, “Synthesis, Characterization and Antitumor Mechanism Investigation of Heterometallic Ru(Ⅱ)-Re(Ⅰ) Complexes” (Frontiers in Chemistry, 2022)
# System: HeLa cells
# Test: Cellular uptake by confocal microscopy
# Type: cell-based, human
# Conditions: 10 μM, increasing incubation time
row,Structure (SMILES),intracellular uptake (confocal microscopy)
1,"F[P-](F)(F)(F)(F)F.F[P-](F)(F)(F)(F)F.F[P-](F)(F)(F)(F)F.[C-]#[O+].[C-]#[O+].[C-]#[O+].[Re+].[Ru+2].c1ccc(-c2ccccn2)nc1.c1ccc(-c2ccccn2)nc1.c1ccc(-c2ccnc3c2ccc2c(-c4ccccc4)ccnc23)cc1.c1cnc2c(c1)c1nc(-c3ccncc3)[nH]c1c1cccnc12 [RuRe-1, [Ru(bpy)2LRe(CO)3(DIP)](PF6)3]",effectively penetrate into HeLa cells
2,"F[P-](F)(F)(F)(F)F.F[P-](F)(F)(F)(F)F.F[P-](F)(F)(F)(F)F.[C-]#[O+].[C-]#[O+].[C-]#[O+].[Re+].[Ru+2].c1ccc(-c2ccnc3c2ccc2c(-c4ccccc4)ccnc23)cc1.c1cnc2c(c1)c1nc(-c3ccncc3)[nH]c1c1cccnc12.c1cnc2c(c1)ccc1cccnc12.c1cnc2c(c1)ccc1cccnc12 [RuRe-2, [Ru(phen)2LRe(CO)3(DIP)](PF6)3]",effectively penetrate into HeLa cells
